Variants at the background level are over-represented here.

The labels stand for the following.
B1: tRNA (parent)
chain: GUUCCGUUGGCGUAAUGGUAACGCGUCUCCCUCCUAAGGAGAAGACUGCGGGUUCGAGUCCCGUACGGAACG

The data set covers variants of B1. The data set can be described thus: yeast fitness relative to wild type (ratio to wild type); higher = fitter; tRNA-Arg(CCU), competitive growth, 37 C, YPD. The method in brief: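 For this measurement, the tRNA-Arg(CCU) gene was varied by chemical synthesis at a 3% per-site mutation rate across 69 sites, and each variant was placed at the native genomic locus in Saccharomyces cerevisiae. The pooled strains went through a 24-hour competition in YPD at 37°C in six parallel replicates, with amplicons from start and end populations read by 100-nucleotide paired-end sequencing. Darwinian fitness relative to wild type followed from the change in each genotype's frequency. Genotypes needed ≥ 100 starting reads, and estimates < 0.5 were set to 0.5.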
Take GUUCCGUUGGCGUAAUGGUAAAGCGACUUCCUCCUAAGGCGCAGACUGCGGGUUCGAGUCCCGUACGGAACG [C22A U26A C29U A40C A42C]: the yeast fitness was not above 0.5.
Regarding GUUCCGUUGGCGUAAUGGUGACGCGUCUUCCUCCUAAGGAGACGACUGCGGGUUCGAGACCCGUACGGAACG [A20G C29U A43C U59A], the yeast fitness was not above 0.5.
To GUUCCGAUGCCGUAAUGGUAACGCGUCUCCCUCCUAAGGAGAAGACUGCGGAUCCGAGUCCCGUACGGAACG [U7A G10C G52A U54C] belongs not above 0.5.
For the variant GUGCCGUUGGCGUAAUGGUAACGCGUCUCCUUCAUAAGGAGAAGACUGCGGGUUCGAGUCCCGUACGGAACG [U3G C31U C34A], the yeast fitness was not above 0.5.
Turning to GUUCCGUUGACGUAAUGGUAACGGGUCUCCCUCUUAAGGAGAAGACUGCGGGUUCGAGUCCCGUACGGAACG [G10A C24G C34U], the yeast fitness is not above 0.5.
To GUUCCGUUGGCGUCAUGGUAACGCGUCUUCCUCCUAAGGAGAAGACGGCAGGUUCGAGUCCAGUACGGACCG [A14C C29U U47G G50A C62A A70C] belongs not above 0.5; to GUUUCGUUGGCGUAAUGGUAACGCGUCUGUCUCCUAAGGAGAAGACUGCGGGUUCGAGUCCCGUACGGAACG [C4U C29G C30U], not above 0.5.
On to GCUCCGUAGGCGUAAUGGUUACGCGUUUCCCUCCUAAGGAGAAGACUGCGGGUUCGAGUCCCGUCCGGAACG [U2C U8A A20U C27U A65C], for which the yeast fitness is not above 0.5.
Consider GUUCCGUUGGAGUAAUGGUAACGUGUCUCCCACCCAAGGAGAAGACUGCGAGUUCGAAUCCCGUACGGAACG [C11A C24U U32A U35C G51A G58A], for which the yeast fitness is not above 0.5.
With GUGCCGUAGGCGUAAUGGUAACGCGGCUCCCUCCUAACGCGAAGACUGCGGGCUCGAGUCCCGUACGGCUCG [U3G U8A U26G G38C A40C U53C A69C A70U], the yeast fitness was not above 0.5.
Turning to GUUCCGCUGGCGUAAUGAUAAGGCGUCUCCCUCCUAAGGAGAAGACUGCGGGUUCGAGUCCCGUACGGAACG [U7C G18A C22G], the yeast fitness was 0.586.
Take GCGCCGUUGACGUAAUGGUAACGCGUCUCCCUCCUAAGGAGAUGACUGCGGGUUCGAGUCCCGUACGGAACG [U2C U3G G10A A43U]: the yeast fitness is not above 0.5.
For the variant GUUCCGUUGGCGUAAUGAUAUCGCGCCUCCCUCCUAAGGAGAAGACUACGGGUUCGAGUCACGUACGGAACG [G18A A21U U26C G48A C61A], the yeast fitness is not above 0.5.
As to GUUCCGUUGGCGUAAUGGUAACGUGUCUCACUCCUAGGGAGAAGACUGCGGGUUCGAGUCCCAUACGGUACG [C24U C30A A37G G63A A69U], the yeast fitness was not above 0.5.
For the variant GUUCCGUUGGCGUAAUGGUAACGCGUUUCCCUCCUAAGGAGACGACUGCGCAUUCGAGUCCCGUACGGCACG [C27U A43C G51C G52A A69C], the yeast fitness is not above 0.5.
On to GUUACGUUGGCGUAAUGGUGACGCGUCUUCAUCCUAAGGGGAAGACUGCGGGUUCGAGUCCCGUACGGAACG [C4A A20G C29U C31A A40G], for which the yeast fitness was not above 0.5.
Turning to GUUCCGUUGGCGUAAUGGUAACGCGUCUCCCUCCUAAGGAGAAGAGUGCGGGUUCGAGGCGCGUACGGAACG [C46G U59G C61G], the yeast fitness is not above 0.5.
Regarding GUUCCGUUGGCGUAAUGGUAACGCGUCUACCUCCUAGGGAGAAGACUGCGGGUUCGAGUCCCGAACAGAACG [C29A A37G U64A G67A], the yeast fitness is not above 0.5.
To GUUCCGUUGGUGUAAUGGUAACGCGUCUUCCUCCUAAGGAGAAGAGUGCGGGUUCGAGUCCUGUACGGAACG [C11U C29U C46G C62U] belongs not above 0.5.
Consider GUUUAGUUGGCGUAAUGGUAACGCGUCUCCCUCCUAAGGAGAAGACUGCGGGUUCGAGUCUCGUACGGAACG [C4U C5A C61U], for which the yeast fitness was found to be 0.719.
As for GUUCCGUUGGCGUAAUGGUAACGGGUCUCCCUCCUAAGGAGUAGACUGCGGGUUCGAGUCCCGUACGGAACG [C24G A42U], the yeast fitness came out at 0.559.
To GUUCCGAUGGCGUAAUGGUGACGCGUCUCCCUCCUAAGGAGAAGACUGCGGGUUCGAGUCCCGUACGGAGCG [U7A A20G A70G] belongs not above 0.5; to GUUCCAUUGGCGUGAUGGUAACGCGUCUCCCUCCUAAGGAGAAGACUGCGGGUUCUAGUCCCGUUCGCAACG [G6A A14G G56U A65U G68C], not above 0.5; to GUUACGUUGGCGUAAUGGUAACGCGUGUGCCUCCUAAGGAGAAGACUGCGGGUUCGAGUCCCGUACGGAACG [C4A C27G C29G], not above 0.5.
As for GCACCGUUGGCGUAAUGGUAACGAGUUUCCCUCCUAAGGAGAAGACUGCGGGUUCGAGUCCCGUACGGAACG [U2C U3A C24A C27U], the yeast fitness is not above 0.5.
As for GUUCCGUUGGAGUAAUGGUAACGCGUCUGCCUCCUAAGGAGAAGACUGCGGGUUAGAGUCCCGUACGGAACG [C11A C29G C55A], the yeast fitness is not above 0.5.
For GUUCCGUUGGCGUAAUAGUACCGCGUCUCCCUCCUCAGGAGAAGACUGCGGGUUCAAGUCCCGUACGGAACG [G17A A21C A36C G56A], the yeast fitness was not above 0.5.
To GUUCCGGUGGCGUAAUGGUGACGCGUUUCCCUCCUAAGGAGAAGACUGGGGCUUCGAGUCCCGUACGGAACG [U7G A20G C27U C49G G52C] belongs not above 0.5; to GUUCCGUUGGGGUAAUGGGAACGCGUCUCCCUCCUAAGGAGAAGACUGCGGGUUCGAGUCCCGUACGGAACG [C11G U19G], 0.577; to GUUCCGUUGGCGUAAUGGUAACGCGUCUCCCUCCUAAGGAGAAGAGUGCGGGUUCGAGUCCCGUACAGAACG [C46G G67A], 0.912.
As to GUUCCGUUGGCGUAUUGGUAACGCGUCUCCCUCCUAAGGAGAAGACUGCGGGCUCGAGUCCCGUACGGAACG [A15U U53C], the yeast fitness turned out to be 0.71.
Turning to GUUCCGUUGGCGAAAUGGUAACGCGUCUCCCUCCUAAGGAGAAGACUGUGGGUUCGAGUCCUGUACCGAACG [U13A C49U C62U G67C], the yeast fitness was not above 0.5.
With GUUCCGUUGGCGUAAUGGUGACGCGUCUCCCUCCUAAGGAGAAGACAGCGGGAUCGAGUCCCGUACGGAACG [A20G U47A U53A], the yeast fitness was not above 0.5.
To GUUACGUUGGCGUAAAGGUAACGCGUCUCCCCCCUAAGGAGAAGACUGCGGGUUCCAGUCCCGUACGGUACG [C4A U16A U32C G56C A69U] belongs not above 0.5.
For GUUACAUUGGCGUAAUGGUAACGCGUCUCCCUCCUAAGGGGAAGACUGCGGGGUCGAGUCCGGUAUGGAACG [C4A G6A A40G U53G C62G C66U], the yeast fitness came to 0.6.
Regarding GCUCCGUUGGCGUAAUGGUAACGCGUCUCCCUCCUAAGGAGAAGAGUGCGGGUUCGAGUCCCAUACGGAUCG [U2C C46G G63A A70U], the yeast fitness is not above 0.5.
To GUUCCGUCGGCGUAAUGGUAAGGCGUCUCCCUCCUAAGGAGAAGACUGUGGGUUCGAGUCCCGCACGGAACG [U8C C22G C49U U64C] belongs 0.679.

These data come from the RNAGym collection of RNA variant scans (doi:10.1126/science.aae0568).
